Measurements reported in patent US5459049A, “Motilin-like polypeptide and use thereof” (priority 1989, dated 1995).
Part of at least one peptide drawing is inferred or uncertain, most often the ends.

Test system: upper small intestine, jejunum and ileum
Assay: Intestinal contraction activity by Balloon method using an unconscious dog (Test Example 3)
Assay type: in vivo
Settings: 2.0 μg/kg/hr, FIGS. 4A and 4B

CC[C@H](C)[C@H](NC(=O)[C@@H]1CCCN1C(=O)[C@@H](NC(=O)[C@@H](N)Cc1ccccc1)C(C)C)C(=O)N[C@@H](Cc1ccccc1)C(=O)N[C@H](C(=O)N[C@@H](Cc1ccc(O)cc1)C(=O)NCC(=O)N[C@@H](CCC(=O)O)C(=O)N[C@@H](CC(C)C)C(=O)N[C@@H](CCC(N)=O)C(=O)N[C@@H](CCCNC(=N)N)C(=O)N[C@@H](CC(C)C)C(=O)N[C@@H](CCC(N)=O)C(=O)N[C@@H](CCC(=O)O)C(=O)N[C@@H](CCCCN)C(=O)N[C@@H](CCC(=O)O)C(=O)N[C@@H](CCCNC(=N)N)C(=O)N[C@@H](CC(N)=O)C(=O)N[C@@H](CCCCN)C(=O)NCC(=O)N[C@@H](CCC(N)=O)C(=O)N[C@@H](CCO)C(=O)O)[C@@H](C)O [[Leu^13]-motilin-homoserine] was tested, and the “intestinal contraction activity compared with control [Leu13]-motilin” value was “noticeable higher contraction activity than the control of [Leu^13 ]-motilin”.
